In the supplement of paper PMC10849652:
Some of the results follow.

By UniProt entry, the sequences of proteins in these tests, tags left out. Where a name states a change or a piece, a line headed by the entry shows the natural chain unless it says otherwise.
UniProt Q9UFN0: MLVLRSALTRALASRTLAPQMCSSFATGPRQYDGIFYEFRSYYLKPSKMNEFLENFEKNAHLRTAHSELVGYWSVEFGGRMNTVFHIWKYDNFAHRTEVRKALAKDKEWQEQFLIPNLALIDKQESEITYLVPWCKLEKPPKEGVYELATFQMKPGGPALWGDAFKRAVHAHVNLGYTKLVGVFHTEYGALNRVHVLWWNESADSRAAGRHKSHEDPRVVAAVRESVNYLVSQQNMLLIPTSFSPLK
UniProt P10588: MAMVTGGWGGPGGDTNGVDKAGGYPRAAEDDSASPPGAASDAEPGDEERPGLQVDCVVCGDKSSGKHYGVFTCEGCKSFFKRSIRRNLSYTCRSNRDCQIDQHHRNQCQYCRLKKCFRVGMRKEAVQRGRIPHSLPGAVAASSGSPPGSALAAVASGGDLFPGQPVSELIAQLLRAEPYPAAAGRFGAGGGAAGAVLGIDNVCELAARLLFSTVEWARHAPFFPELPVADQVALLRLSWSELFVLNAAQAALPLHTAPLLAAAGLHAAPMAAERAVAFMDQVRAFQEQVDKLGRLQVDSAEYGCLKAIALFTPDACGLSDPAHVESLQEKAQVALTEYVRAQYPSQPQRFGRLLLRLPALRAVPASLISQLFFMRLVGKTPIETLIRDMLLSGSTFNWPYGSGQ
UniProt Q8TD19: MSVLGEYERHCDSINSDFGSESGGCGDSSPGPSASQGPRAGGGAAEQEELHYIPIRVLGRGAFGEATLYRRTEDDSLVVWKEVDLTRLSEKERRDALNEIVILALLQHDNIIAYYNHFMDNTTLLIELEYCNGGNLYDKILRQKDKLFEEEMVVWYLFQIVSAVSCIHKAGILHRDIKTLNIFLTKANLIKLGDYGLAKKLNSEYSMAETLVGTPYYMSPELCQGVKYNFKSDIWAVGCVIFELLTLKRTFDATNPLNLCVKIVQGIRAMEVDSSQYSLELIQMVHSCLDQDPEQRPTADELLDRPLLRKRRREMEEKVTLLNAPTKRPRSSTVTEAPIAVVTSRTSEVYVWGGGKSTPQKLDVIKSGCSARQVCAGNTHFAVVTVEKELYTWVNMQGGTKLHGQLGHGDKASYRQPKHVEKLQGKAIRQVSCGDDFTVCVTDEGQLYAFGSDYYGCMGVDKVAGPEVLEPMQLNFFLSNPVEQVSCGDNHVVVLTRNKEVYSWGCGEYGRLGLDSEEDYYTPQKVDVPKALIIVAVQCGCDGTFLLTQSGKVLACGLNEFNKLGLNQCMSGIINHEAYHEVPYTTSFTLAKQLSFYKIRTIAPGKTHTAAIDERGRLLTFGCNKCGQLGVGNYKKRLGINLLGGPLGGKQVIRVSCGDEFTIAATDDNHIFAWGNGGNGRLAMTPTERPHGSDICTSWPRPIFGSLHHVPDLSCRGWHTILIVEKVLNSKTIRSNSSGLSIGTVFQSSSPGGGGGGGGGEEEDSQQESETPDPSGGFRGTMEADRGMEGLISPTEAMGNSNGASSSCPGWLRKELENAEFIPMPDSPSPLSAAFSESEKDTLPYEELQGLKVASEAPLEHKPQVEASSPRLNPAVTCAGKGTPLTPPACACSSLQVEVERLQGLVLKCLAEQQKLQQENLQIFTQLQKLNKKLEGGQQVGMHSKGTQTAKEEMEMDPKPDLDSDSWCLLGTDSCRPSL
UniProt Q8NC60: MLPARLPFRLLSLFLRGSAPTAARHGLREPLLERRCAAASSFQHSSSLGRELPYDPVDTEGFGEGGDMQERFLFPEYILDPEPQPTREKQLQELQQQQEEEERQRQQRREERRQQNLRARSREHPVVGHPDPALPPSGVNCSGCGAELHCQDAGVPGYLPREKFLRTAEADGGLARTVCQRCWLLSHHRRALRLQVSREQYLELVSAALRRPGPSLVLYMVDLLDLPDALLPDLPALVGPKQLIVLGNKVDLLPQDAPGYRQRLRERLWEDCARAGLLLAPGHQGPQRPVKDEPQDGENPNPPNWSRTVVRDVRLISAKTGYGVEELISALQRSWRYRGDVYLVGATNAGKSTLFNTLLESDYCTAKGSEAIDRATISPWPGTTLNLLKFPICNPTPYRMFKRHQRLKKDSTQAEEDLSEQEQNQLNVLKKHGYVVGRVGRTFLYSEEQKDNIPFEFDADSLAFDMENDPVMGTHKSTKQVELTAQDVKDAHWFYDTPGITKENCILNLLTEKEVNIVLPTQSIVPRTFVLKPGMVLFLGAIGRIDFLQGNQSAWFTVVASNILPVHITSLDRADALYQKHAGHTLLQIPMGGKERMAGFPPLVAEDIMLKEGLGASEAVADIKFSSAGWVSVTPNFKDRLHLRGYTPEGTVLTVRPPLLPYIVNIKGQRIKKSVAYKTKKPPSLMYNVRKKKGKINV
UniProt Q9H9Q4: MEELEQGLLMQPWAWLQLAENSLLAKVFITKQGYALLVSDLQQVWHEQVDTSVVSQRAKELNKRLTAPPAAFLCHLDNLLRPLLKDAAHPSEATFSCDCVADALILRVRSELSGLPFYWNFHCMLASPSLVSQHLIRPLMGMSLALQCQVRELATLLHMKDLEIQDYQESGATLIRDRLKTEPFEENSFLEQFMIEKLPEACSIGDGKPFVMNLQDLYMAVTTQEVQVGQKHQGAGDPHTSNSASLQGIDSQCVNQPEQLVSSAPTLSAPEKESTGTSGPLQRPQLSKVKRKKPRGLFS
UniProt Q15233: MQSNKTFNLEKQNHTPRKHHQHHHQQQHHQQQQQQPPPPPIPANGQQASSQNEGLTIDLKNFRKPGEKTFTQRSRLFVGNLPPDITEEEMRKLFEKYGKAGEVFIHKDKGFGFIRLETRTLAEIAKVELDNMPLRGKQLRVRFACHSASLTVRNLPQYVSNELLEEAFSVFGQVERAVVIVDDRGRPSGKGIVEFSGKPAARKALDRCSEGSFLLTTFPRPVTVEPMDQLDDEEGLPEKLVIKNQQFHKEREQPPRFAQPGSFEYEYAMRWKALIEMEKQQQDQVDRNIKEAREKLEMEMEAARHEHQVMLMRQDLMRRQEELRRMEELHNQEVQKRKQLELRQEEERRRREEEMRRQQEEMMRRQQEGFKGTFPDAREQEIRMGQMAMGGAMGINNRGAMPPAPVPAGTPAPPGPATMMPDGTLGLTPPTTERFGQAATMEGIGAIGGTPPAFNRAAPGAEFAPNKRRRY
UniProt Q6ZNB6: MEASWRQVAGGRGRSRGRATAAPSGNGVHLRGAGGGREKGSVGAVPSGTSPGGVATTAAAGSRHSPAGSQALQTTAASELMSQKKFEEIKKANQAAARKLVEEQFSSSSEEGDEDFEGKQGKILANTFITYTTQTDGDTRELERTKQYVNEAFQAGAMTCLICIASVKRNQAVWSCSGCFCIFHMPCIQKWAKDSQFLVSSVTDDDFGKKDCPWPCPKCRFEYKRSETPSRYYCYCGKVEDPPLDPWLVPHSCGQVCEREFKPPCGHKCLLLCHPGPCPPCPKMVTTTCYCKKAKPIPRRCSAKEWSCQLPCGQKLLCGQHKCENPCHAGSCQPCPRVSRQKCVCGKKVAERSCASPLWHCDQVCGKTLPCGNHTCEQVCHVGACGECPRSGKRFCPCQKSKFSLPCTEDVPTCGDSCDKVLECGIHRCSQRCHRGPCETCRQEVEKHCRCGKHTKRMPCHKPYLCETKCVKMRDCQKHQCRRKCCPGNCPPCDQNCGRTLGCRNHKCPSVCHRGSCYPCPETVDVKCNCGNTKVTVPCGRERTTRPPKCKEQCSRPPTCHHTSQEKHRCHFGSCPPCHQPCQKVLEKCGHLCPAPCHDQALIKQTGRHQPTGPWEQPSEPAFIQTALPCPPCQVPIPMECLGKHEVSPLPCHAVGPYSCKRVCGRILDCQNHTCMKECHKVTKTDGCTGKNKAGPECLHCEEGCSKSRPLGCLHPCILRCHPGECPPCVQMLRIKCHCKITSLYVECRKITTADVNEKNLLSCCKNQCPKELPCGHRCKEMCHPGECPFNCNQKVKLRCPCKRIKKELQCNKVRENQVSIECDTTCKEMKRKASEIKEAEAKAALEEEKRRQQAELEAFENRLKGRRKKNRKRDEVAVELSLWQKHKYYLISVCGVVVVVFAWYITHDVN
UniProt O75414: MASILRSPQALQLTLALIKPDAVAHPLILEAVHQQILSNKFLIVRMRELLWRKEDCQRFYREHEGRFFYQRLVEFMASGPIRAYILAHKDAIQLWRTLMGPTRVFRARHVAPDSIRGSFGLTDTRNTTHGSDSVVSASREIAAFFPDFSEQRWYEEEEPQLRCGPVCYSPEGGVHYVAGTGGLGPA
UniProt Q9NPE2: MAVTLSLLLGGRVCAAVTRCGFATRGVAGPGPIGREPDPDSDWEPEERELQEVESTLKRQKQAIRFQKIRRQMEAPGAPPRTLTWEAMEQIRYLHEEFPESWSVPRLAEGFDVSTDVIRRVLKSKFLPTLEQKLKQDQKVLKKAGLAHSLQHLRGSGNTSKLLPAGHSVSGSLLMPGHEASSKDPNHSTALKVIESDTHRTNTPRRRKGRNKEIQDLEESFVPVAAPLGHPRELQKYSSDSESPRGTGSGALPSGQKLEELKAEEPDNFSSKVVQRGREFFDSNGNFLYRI
UniProt Q92636: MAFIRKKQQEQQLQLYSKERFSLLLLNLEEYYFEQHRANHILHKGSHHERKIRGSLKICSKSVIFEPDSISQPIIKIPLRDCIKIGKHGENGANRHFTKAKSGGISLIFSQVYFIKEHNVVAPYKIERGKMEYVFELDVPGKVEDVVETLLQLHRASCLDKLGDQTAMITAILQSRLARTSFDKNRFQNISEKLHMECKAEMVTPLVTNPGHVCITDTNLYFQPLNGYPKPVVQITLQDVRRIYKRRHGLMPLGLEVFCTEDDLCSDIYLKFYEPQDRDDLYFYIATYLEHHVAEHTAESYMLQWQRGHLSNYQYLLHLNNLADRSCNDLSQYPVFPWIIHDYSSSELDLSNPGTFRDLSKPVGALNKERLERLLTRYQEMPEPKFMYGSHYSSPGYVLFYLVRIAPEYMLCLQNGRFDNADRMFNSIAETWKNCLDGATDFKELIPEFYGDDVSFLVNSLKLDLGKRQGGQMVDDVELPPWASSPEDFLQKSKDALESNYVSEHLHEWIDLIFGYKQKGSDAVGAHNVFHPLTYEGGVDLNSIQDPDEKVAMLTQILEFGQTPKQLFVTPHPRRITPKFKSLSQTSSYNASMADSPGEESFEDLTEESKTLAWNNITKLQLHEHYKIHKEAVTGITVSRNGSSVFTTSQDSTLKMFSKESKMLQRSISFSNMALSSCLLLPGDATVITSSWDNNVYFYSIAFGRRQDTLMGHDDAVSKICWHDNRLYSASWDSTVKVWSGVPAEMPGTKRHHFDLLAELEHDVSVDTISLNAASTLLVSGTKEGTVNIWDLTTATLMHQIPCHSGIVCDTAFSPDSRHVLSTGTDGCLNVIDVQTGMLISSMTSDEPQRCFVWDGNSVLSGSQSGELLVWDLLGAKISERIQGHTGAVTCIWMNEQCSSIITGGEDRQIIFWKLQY
UniProt P06748, whole entry, looked up: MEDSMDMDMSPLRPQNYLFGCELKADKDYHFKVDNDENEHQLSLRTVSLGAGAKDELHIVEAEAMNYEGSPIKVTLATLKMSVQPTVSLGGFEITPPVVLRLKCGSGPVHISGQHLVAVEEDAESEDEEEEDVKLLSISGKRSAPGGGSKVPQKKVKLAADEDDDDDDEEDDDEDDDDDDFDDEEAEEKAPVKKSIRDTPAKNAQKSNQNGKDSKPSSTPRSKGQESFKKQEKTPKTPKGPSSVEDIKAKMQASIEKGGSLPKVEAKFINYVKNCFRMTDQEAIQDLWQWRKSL
UniProt P30419: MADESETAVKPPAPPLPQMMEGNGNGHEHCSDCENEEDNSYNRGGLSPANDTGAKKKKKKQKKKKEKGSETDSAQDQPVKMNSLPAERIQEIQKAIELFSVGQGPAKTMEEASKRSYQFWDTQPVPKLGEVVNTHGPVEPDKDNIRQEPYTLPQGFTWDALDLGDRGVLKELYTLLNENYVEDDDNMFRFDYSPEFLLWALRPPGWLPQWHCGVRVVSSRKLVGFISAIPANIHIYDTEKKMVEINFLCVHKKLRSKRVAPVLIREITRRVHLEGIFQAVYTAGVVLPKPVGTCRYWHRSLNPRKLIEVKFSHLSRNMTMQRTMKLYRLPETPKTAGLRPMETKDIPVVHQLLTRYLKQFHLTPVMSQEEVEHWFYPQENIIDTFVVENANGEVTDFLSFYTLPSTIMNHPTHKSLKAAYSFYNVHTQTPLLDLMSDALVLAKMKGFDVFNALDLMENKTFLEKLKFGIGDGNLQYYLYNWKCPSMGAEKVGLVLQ

Experiments:
Assay in all cases: log2 fold change, soluble protein after heating vs DMSO (PISA); higher = thermal stabilisation; K562 cells, 10 uM, 30 min; active = over 0.2 and 3.5 SD of the protein, either way, in both replicates (recomputed)
saracatinib = compound: CN1CCN(CCOc2cc(OC3CCOCC3)c3c(Nc4c(Cl)ccc5c4OCO5)ncnc3c2)CC1 [saracatinib]
Outline: (§1)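 Values are thermal stability changes relative to control samples and are taken from duplicates. They are stated as log2 fold changes. Before quantification by TMTpro 16plex LC-MS/MS with equalised channel sums, K562 cells at 2×10^6 cells/mL were treated with 10 μM compound for 30 min, heated in aliquots for 3 min across 48°C-58°C, pooled, extracted in PBS with 0.5% NP-40 at 4°C, and centrifuged at 21,000xg for 90 min to give the soluble supernatant.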

sotrastaurin = compound: CN1CCN(c2nc(C3=C(c4c[nH]c5ccccc45)C(=O)NC3=O)c3ccccc3n2)CC1 [sotrastaurin]
Outline: as §1

alvocidib = compound: CN1CC[C@H](c2c(O)cc(O)c3c(=O)cc(-c4ccccc4Cl)oc23)[C@H](O)C1 [alvocidib]
Outline: as §1

Tubastatin A = compound: CN1CCc2c(c3ccccc3n2Cc2ccc(C(=O)NO)cc2)C1 [Tubastatin A]
Outline: as §1

[1] = compound: CNC(=O)C1=CC=CC=C1NC2=NC(=NC=C2Cl)NC3=C(C=C(C=C3)N4CCOCC4)OC
Outline: as §1

defactinib = compound: CNC(=O)c1ccc(Nc2ncc(C(F)(F)F)c(NCc3nccnc3N(C)S(C)(=O)=O)n2)cc1 [defactinib]
Outline: as §1

rucaparib = compound: CNCc1ccc(-c2[nH]c3cc(F)cc4c3c2CCNC4=O)cc1 [rucaparib]
Outline: as §1

[2] = compound: CNc1nc(-c2ccc3c(N)n[nH]c3c2)cc(N2C[C@@H](C(=O)NC3CCCCC3)CC[C@H]2C)n1
Outline: as §1

encorafenib = compound: COC(=O)N[C@@H](C)CNc1nccc(-c2cn(C(C)C)nc2-c2cc(Cl)cc(NS(C)(=O)=O)c2F)n1 [encorafenib]
Outline: as §1

[3] = compound: COC(=O)[C@H](CCSC)NC(=O)C1=C(C=C(C=C1)NC[C@H](CS)N)C2=CC=CC=C2
Outline: as §1

[4] = compound: COC1=CC=C(C=C1)CN2C=CC3=C2C=C(C=C3)C(=O)NO
Outline: as §1

filanesib = compound: CON(C)C(=O)N1N=C(c2cc(F)ccc2F)S[C@@]1(CCCN)c1ccccc1 [filanesib]
Outline: as §1

zotarolimus = compound: CO[C@H]1C[C@@H]2CC[C@@H](C)[C@@](O)(O2)C(=O)C(=O)N2CCCC[C@H]2C(=O)O[C@H]([C@H](C)C[C@@H]2CC[C@H](n3cnnn3)[C@H](OC)C2)CC(=O)[C@H](C)/C=C(\C)[C@@H](O)[C@@H](OC)C(=O)[C@H](C)C[C@H](C)/C=C/C=C/C=C/1C [zotarolimus]
Outline: as §1

idasanutlin = compound: COc1cc(C(=O)O)ccc1NC(=O)[C@@H]1N[C@@H](CC(C)(C)C)[C@](C#N)(c2ccc(Cl)cc2F)[C@H]1c1cccc(Cl)c1F [idasanutlin]
Outline: as §1

alisertib = compound: COc1cc(Nc2ncc3c(n2)-c2ccc(Cl)cc2C(c2c(F)cccc2OC)=NC3)ccc1C(=O)O [alisertib]
Outline: as §1

[5] = compound: COc1cc2nc(-c3cc(F)ccc3O)nc(N[C@@H]3CNC[C@H]3C(C)(C)O)c2cc1OC
Outline: as §1

gefitinib = compound: COc1cc2ncnc(Nc3ccc(F)c(Cl)c3)c2cc1OCCCN1CCOCC1 [gefitinib]
Outline: as §1

[6] = compound: COc1cccc2cc(-c3nc([C@H]4CC[C@H](C(=O)O)CC4)n4ncnc(N)c34)[nH]c12
Outline: as §1

lapatinib = compound: CS(=O)(=O)CCNCc1ccc(-c2ccc3ncnc(Nc4ccc(OCc5cccc(F)c5)c(Cl)c4)c3c2)o1 [lapatinib]
Outline: as §1

pictilisib = compound: CS(=O)(=O)N1CCN(Cc2cc3nc(-c4cccc5[nH]ncc45)nc(N4CCOCC4)c3s2)CC1 [pictilisib]
Outline: as §1

Measured: log2 fold change

NIPSNAP3A (UniProt Q9UFN0)
inactive: saracatinib 0.011 | sotrastaurin 0.023 | alvocidib 0.013 | Tubastatin A -0.01 | [1] -0.001 | defactinib -0.036 | rucaparib 0.004 | [2] -0.087 | encorafenib 0.008 | [3] 0.045 | [4] 0.023 | filanesib -0.042 | zotarolimus -0.022 | idasanutlin -0.032 | alisertib -0.021 | [5] -0.016 | gefitinib 0.01 | [6] 0.063 | lapatinib 0.013 | pictilisib -0.003

NRBF2 (UniProt Q96F24)
inactive: saracatinib -0.022 | sotrastaurin -0.013 | alvocidib -0.036 | Tubastatin A -0.054 | [1] 0.025 | defactinib -0.027 | rucaparib -0.02 | [2] -0.049 | encorafenib 0.033 | [3] 0.062 | [4] -0.017 | filanesib -0.005 | zotarolimus -0.011 | idasanutlin 0.012 | alisertib 0.146 | [5] -0.025 | gefitinib -0.008 | [6] -0.017 | lapatinib 0.055 | pictilisib 0.102

NR2F6 (UniProt P10588)
inactive: saracatinib 0.009 | sotrastaurin 0.28 | alvocidib -0.03 | Tubastatin A -0.008 | [1] 0.094 | defactinib 0.012 | rucaparib -0.136 | [2] -0.068 | encorafenib 0.065 | [3] -0.05 | [4] -0.371 | filanesib -0.081 | zotarolimus 0.066 | idasanutlin -0.069 | alisertib -0.196 | [5] -0.013 | gefitinib -0.205 | [6] -0.029 | lapatinib -0.133 | pictilisib 0.045

NEK9 (UniProt Q8TD19)
inactive: saracatinib -0.013 | sotrastaurin 0.01 | alvocidib -0.024 | Tubastatin A 0.03 | [1] -0.016 | defactinib -0.049 | rucaparib -0.015 | [2] 0.025 | encorafenib 0.008 | [3] 0.023 | [4] 0.022 | filanesib 0.039 | zotarolimus 0.027 | idasanutlin -0.002 | alisertib -0.048 | [5] 0.011 | gefitinib 0 | [6] -0.007 | lapatinib 0.014 | pictilisib 0.038

NOA1 (UniProt Q8NC60)
inactive: saracatinib -0.139 | sotrastaurin 0.042 | alvocidib 0.055 | Tubastatin A 0.045 | [1] -0.042 | defactinib -0.047 | rucaparib -0.047 | [2] -0.031 | encorafenib 0.028 | [3] -0.043 | [4] -0.049 | filanesib 0.08 | zotarolimus -0.07 | idasanutlin -0.068 | alisertib 0.006 | [5] -0.044 | gefitinib -0.027 | [6] -0.078 | lapatinib -0.005 | pictilisib -0.004

NHEJ1 (UniProt Q9H9Q4)
inactive: saracatinib 0.048 | sotrastaurin 0.026 | alvocidib -0.077 | Tubastatin A -0.023 | [1] -0.036 | defactinib 0.028 | rucaparib 0.01 | [2] 0.021 | encorafenib 0.032 | [3] -0.021 | [4] -0.215 | filanesib -0.009 | zotarolimus -0.004 | idasanutlin -0.168 | alisertib 0.094 | [5] -0.183 | gefitinib 0.018 | [6] 0.108 | lapatinib 0.218 | pictilisib -0.147

NONO (UniProt Q15233)
inactive: saracatinib -0.123 | sotrastaurin -0.17 | alvocidib -0.047 | Tubastatin A 0.178 | [1] -0.031 | defactinib -0.103 | rucaparib 0.169 | [2] -0.014 | encorafenib 0.099 | [3] -0.03 | [4] -0.049 | filanesib 0.293 | zotarolimus 0.099 | idasanutlin 0.306 | alisertib -0.032 | [5] -0.179 | gefitinib 0.156 | [6] -0.113 | lapatinib 0.013 | pictilisib 0.176

NPC1 (UniProt O15118)
inactive: saracatinib 0.077 | sotrastaurin 0.007 | Tubastatin A -0.045 | [1] 0.02 | defactinib 0.01 | rucaparib -0.147 | [2] -0.049 | encorafenib -0.012 | [3] -0.006 | [4] 0.04 | filanesib -0.12 | zotarolimus -0.038 | idasanutlin 0.025 | alisertib -0.067 | [5] 0.035 | gefitinib -0.027 | [6] 0.057 | lapatinib 0.026 | pictilisib 0

NEU1 (UniProt Q99519)
inactive: saracatinib -0.044 | sotrastaurin 0 | Tubastatin A 0.028 | [1] -0.113 | defactinib -0.011 | rucaparib -0.012 | [2] -0.011 | encorafenib -0.012 | [3] -0.019 | [4] 0.153 | filanesib -0.107 | zotarolimus 0.001 | idasanutlin 0.015 | alisertib -0.123 | [5] -0.05 | gefitinib -0.091 | [6] -0.073 | lapatinib -0.015 | pictilisib -0.113

Random excerpt: two entries already listed.
NONO (UniProt Q15233)
inactive: saracatinib -0.123 | sotrastaurin -0.17 | alvocidib -0.047 | Tubastatin A 0.178 | [1] -0.031 | defactinib -0.103 | rucaparib 0.169 | [2] -0.014 | encorafenib 0.099 | [3] -0.03 | [4] -0.049 | filanesib 0.293 | zotarolimus 0.099 | idasanutlin 0.306 | alisertib -0.032 | [5] -0.179 | gefitinib 0.156 | [6] -0.113 | lapatinib 0.013 | pictilisib 0.176

NIPSNAP3A (UniProt Q9UFN0)
inactive: saracatinib 0.011 | sotrastaurin 0.023 | alvocidib 0.013 | Tubastatin A -0.01 | [1] -0.001 | defactinib -0.036 | rucaparib 0.004 | [2] -0.087 | encorafenib 0.008 | [3] 0.045 | [4] 0.023 | filanesib -0.042 | zotarolimus -0.022 | idasanutlin -0.032 | alisertib -0.021 | [5] -0.016 | gefitinib 0.01 | [6] 0.063 | lapatinib 0.013 | pictilisib -0.003

The list continues:

NFXL1 (UniProt Q6ZNB6)
inactive: saracatinib 0.023 | sotrastaurin 0.011 | alvocidib 0.014 | Tubastatin A -0.003 | [1] 0.022 | defactinib -0.04 | rucaparib 0.087 | [2] -0.031 | encorafenib 0.002 | [3] 0 | [4] 0.052 | filanesib 0.075 | zotarolimus 0.015 | idasanutlin 0.002 | alisertib -0.006 | [5] 0.092 | gefitinib -0.031 | [6] -0.017 | lapatinib -0.034 | pictilisib 0.002

NME6 (UniProt O75414)
inactive: saracatinib 0.02 | sotrastaurin -0.041 | alvocidib 0.037 | Tubastatin A 0.002 | [1] -0.028 | defactinib -0.047 | rucaparib -0.022 | [2] -0.022 | encorafenib -0.027 | [3] -0.058 | [4] 0.02 | filanesib -0.057 | zotarolimus -0.063 | idasanutlin -0.05 | alisertib -0.052 | [5] 0.011 | gefitinib 0.019 | [6] 0.022 | lapatinib -0.051 | pictilisib 0

NGRN (UniProt Q9NPE2)
inactive: saracatinib -0.027 | sotrastaurin 0.041 | alvocidib 0.136 | Tubastatin A 0.029 | [1] 0.077 | defactinib -0.031 | rucaparib 0.114 | [2] 0.092 | encorafenib -0.035 | [3] 0.028 | filanesib 0.079 | zotarolimus -0.102 | idasanutlin 0.045 | alisertib 0.012 | [5] 0.082 | gefitinib 0.028 | [6] -0.006 | lapatinib 0.059 | pictilisib 0.101

NSMAF (UniProt Q92636)
inactive: saracatinib -0.03 | sotrastaurin 0.013 | alvocidib -0.063 | Tubastatin A -0.03 | [1] -0.008 | defactinib -0.031 | rucaparib 0.178 | [2] -0.044 | encorafenib 0.01 | [3] -0.018 | [4] 0.046 | filanesib -0.025 | zotarolimus 0.014 | idasanutlin -0.004 | alisertib -0.037 | [5] 0.064 | gefitinib -0.02 | [6] 0.028 | lapatinib 0.022 | pictilisib 0.036

NPM1 (UniProt P06748)
inactive: saracatinib -0.076 | sotrastaurin -0.035 | alvocidib 0.179 | Tubastatin A 0.092 | [1] 0.033 | defactinib 0.228 | rucaparib 0.402 | [2] 0.071 | encorafenib 0.143 | [3] -0.056 | [4] -0.014 | filanesib 0.392 | zotarolimus 0.074 | idasanutlin 0.176 | alisertib -0.092 | [5] -0.137 | gefitinib -0.002 | [6] -0.113 | lapatinib 0.063 | pictilisib -0.143

NMT1 (UniProt P30419)
inactive: saracatinib -0.046 | sotrastaurin 0.019 | Tubastatin A -0.029 | [1] -0.003 | defactinib 0.015 | rucaparib -0.009 | [2] 0.013 | encorafenib -0.002 | [3] 0.024 | [4] -0.023 | filanesib -0.005 | zotarolimus 0.042 | idasanutlin -0.015 | alisertib -0.056 | [5] -0.009 | gefitinib -0.044 | [6] 0.018 | lapatinib 0.03 | pictilisib 0.029
